# These are yes or no findings as the source states them, for the method shown. Binding seen in cells or lysates may run through a third protein. Binding can be weak; no strength is given. Where a sequence is shown, tags or fusion partners need not be part of it.
# The chains behind the UniProt entries cited, without tags or fusion partners. Where a name states a change or a piece, a line headed by the entry shows the natural chain unless it says otherwise.
# UniProt P97546: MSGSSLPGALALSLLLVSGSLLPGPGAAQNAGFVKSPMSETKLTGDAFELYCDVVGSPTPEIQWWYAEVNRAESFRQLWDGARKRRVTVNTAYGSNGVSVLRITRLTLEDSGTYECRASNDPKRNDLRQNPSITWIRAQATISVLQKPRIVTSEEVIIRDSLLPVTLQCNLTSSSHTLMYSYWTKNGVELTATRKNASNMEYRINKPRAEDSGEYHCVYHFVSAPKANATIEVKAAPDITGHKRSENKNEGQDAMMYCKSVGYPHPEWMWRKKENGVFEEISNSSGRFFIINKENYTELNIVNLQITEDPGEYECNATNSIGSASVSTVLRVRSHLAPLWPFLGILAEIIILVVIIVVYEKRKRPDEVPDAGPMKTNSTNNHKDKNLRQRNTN
# T1: GST-TRAF6 (mouse) (UniProt P70196)
# T1 sequence: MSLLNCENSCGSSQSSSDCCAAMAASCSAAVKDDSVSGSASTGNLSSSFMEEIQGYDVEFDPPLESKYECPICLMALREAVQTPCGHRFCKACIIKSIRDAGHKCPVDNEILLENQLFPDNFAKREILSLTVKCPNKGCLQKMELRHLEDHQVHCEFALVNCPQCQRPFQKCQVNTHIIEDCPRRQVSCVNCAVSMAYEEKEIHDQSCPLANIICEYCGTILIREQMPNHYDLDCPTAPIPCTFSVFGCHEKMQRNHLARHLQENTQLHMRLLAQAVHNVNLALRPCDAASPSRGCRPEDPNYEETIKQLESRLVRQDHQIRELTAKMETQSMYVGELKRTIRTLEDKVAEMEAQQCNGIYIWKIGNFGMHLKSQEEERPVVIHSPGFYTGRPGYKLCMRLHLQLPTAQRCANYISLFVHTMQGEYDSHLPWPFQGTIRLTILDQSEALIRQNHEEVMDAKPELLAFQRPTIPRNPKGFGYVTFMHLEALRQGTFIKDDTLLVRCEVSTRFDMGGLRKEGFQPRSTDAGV
# T2: GST-TRAF6cc-c (mouse) (UniProt P70196)
# T2 sequence: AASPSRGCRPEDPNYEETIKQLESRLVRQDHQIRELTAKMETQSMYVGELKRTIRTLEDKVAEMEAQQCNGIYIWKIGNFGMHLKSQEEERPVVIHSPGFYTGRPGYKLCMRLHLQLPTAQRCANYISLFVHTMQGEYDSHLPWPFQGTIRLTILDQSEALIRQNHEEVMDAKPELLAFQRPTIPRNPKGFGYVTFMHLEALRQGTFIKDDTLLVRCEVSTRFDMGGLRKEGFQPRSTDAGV
# How the values were obtained:
# GST-TRAF6 (mouse) = molecular target: T1, GST-TRAF6 (mouse); assay: pull-down
# GST-TRAF6cc-c (mouse) = molecular target: T2, GST-TRAF6cc-c (mouse); assay: pull-down
# Np55-GFP = assay: co-IP
# Np65-GFP = Np65-GFP (UniProt P97546); assay: co-IP
# Np55DDEP(-)-GFP = assay: co-IP
binding (GST-TRAF6 (mouse)),binding (GST-TRAF6cc-c (mouse)),binding (Np55-GFP),binding (Np65-GFP),binding (Np55DDEP(-)-GFP),Molecule
binds,binds,–,–,–,Np65-GFP (from UniProt P97546-2)
–,–,binds,binds,binds,"Flag-TRAF6 (protein, UniProt P70196 1-530) MSLLNCENSCGSSQSSSDCCAAMAASCSAAVKDDSVSGSASTGNLSSSFMEEIQGYDVEFDPPLESKYECPICLMALREAVQTPCGHRFCKACIIKSIRDAGHKCPVDNEILLENQLFPDNFAKREILSLTVKCPNKGCLQKMELRHLEDHQVHCEFALVNCPQCQRPFQKCQVNTHIIEDCPRRQVSCVNCAVSMAYEEKEIHDQSCPLANIICEYCGTILIREQMPNHYDLDCPTAPIPCTFSVFGCHEKMQRNHLARHLQENTQLHMRLLAQAVHNVNLALRPCDAASPSRGCRPEDPNYEETIKQLESRLVRQDHQIRELTAKMETQSMYVGELKRTIRTLEDKVAEMEAQQCNGIYIWKIGNFGMHLKSQEEERPVVIHSPGFYTGRPGYKLCMRLHLQLPTAQRCANYISLFVHTMQGEYDSHLPWPFQGTIRLTILDQSEALIRQNHEEVMDAKPELLAFQRPTIPRNPKGFGYVTFMHLEALRQGTFIKDDTLLVRCEVSTRFDMGGLRKEGFQPRSTDAGV"

# — paper doi:10.1101/768341
